Measurements from PMC4948766.

Chains of the proteins cited; added tags and fusions are not shown. Lines headed by an entry give the natural chain unless they say otherwise; changes in a name come on top. A line that says so, or that is headed by a name, gives the form on record, which may keep a tag or linker.
UniProt Q9HD34: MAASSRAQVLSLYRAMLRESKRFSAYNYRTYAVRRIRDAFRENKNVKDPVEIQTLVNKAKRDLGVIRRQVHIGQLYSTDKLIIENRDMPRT
human ISD11 (expressed as GST-ISD11 from pZM96, GST removed with thrombin) (Q9HD34, form named): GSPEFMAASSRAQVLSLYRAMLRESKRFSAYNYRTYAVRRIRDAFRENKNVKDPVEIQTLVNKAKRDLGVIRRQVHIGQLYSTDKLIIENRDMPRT
UniProt P0A6B7: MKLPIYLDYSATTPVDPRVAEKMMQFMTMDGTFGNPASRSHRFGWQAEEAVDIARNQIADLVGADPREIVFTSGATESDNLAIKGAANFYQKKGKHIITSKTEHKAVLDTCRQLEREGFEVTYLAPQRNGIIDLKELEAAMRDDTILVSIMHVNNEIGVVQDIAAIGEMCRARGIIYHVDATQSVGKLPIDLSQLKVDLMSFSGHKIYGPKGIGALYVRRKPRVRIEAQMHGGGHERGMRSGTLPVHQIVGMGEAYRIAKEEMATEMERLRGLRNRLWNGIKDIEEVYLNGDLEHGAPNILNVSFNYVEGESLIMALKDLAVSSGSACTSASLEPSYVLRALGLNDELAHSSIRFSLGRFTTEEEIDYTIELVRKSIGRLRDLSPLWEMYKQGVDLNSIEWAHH

Columns and labels:
[1] = target: His-tagged ISD11 (pZM6), co-expressed with IscS (human) (UniProt Q9HD34); assay: affinity purification with mass spectrometry; untagged IscS (pSL219) co-expressed with His-ISD11 (pZM6) in E. coli CL100 ΔiscS, co-purified; MALDI-TOF MS from 15% SDS-PAGE
[2] = target: human ISD11 (expressed as GST-ISD11 from pZM96, GST removed with thrombin) (human) (UniProt Q9HD34); assay: affinity purification with mass spectrometry; GST-ISD11 expressed in E. coli, Glutathione Sepharose, thrombin cleavage, SEC on 16/600 Superdex 75; co-purified ca. 45 kDa protein identified by MS/MS

| binding [1] | binding [2] | Substance |
| --- | --- | --- |
| binds | – | untagged IscS (pSL219), co-expressed with His-ISD11 (from UniProt P0A6B7 1-404) (enzyme) |
| – | binds | bacterial IscS, endogenous in the E. coli expression host (from UniProt P0A6B7 1-404) (enzyme) |

No constants are given. Whether binding was seen depends on the method and setting. In cells and extracts the contact can be indirect. A yes stands for co-enrichment or nearness to the bait. Other partners may have been found.
